Measurements as given in the supplement of paper PMC6411743.
± gives the standard deviation of the averaged measurements. This is one part of the list.

Sequences of proteins named here, by UniProt entry; tags and fusion partners are left off. A change or cut given only in a name is not applied to a line headed by its entry.
UniProt P42166: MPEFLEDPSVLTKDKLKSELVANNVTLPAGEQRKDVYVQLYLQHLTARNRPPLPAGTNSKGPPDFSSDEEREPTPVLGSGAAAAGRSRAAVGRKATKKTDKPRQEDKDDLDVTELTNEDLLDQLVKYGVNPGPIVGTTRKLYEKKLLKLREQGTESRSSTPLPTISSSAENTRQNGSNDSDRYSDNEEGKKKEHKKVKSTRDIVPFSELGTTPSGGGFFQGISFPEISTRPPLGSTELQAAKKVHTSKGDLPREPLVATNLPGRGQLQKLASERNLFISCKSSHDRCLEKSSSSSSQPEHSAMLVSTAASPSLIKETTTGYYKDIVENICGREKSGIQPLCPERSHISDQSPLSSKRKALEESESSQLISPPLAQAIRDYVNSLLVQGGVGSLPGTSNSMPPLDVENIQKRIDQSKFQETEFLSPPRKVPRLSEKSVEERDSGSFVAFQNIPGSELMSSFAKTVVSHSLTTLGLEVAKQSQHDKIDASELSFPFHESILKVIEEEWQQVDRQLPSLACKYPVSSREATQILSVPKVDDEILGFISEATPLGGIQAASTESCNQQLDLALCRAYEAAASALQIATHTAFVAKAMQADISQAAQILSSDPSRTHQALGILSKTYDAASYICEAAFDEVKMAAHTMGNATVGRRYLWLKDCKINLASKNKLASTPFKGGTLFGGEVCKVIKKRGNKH
UniProt P29374: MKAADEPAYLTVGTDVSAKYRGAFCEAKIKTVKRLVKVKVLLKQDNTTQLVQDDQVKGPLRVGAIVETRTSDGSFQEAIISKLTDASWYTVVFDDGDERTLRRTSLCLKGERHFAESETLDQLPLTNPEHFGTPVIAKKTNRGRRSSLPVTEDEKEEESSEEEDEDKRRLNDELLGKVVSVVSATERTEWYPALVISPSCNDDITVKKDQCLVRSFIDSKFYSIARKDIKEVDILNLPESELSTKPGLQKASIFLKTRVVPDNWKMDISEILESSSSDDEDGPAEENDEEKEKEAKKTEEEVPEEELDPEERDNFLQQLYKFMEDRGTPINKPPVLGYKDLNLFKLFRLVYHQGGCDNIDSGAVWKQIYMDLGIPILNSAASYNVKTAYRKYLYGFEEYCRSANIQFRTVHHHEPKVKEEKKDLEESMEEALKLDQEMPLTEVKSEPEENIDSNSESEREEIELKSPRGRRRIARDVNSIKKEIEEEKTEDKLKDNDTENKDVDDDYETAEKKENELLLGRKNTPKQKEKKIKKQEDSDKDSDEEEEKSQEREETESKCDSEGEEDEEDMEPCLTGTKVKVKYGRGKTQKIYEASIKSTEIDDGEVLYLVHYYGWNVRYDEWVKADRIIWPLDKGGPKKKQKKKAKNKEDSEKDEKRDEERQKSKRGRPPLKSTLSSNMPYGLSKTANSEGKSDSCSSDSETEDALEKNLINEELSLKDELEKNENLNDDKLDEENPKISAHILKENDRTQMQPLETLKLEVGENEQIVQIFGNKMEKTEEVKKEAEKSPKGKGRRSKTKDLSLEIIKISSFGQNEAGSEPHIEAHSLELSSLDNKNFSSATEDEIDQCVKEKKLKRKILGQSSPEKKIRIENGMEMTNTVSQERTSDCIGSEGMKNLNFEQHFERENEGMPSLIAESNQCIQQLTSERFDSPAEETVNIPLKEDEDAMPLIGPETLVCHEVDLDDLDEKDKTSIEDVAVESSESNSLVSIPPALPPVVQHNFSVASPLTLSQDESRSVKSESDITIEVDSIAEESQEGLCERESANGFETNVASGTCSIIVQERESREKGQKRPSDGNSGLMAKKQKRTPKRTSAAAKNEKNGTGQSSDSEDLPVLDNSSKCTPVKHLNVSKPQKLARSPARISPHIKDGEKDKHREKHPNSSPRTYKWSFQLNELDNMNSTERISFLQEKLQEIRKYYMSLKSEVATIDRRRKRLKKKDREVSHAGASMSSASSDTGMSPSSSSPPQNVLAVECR
UniProt P49914: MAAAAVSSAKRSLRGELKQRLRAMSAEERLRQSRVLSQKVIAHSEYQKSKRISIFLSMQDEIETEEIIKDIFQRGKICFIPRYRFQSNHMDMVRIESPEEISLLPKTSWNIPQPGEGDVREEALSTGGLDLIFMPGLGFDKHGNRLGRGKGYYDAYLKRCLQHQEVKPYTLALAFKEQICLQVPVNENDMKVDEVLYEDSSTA
UniProt P28838: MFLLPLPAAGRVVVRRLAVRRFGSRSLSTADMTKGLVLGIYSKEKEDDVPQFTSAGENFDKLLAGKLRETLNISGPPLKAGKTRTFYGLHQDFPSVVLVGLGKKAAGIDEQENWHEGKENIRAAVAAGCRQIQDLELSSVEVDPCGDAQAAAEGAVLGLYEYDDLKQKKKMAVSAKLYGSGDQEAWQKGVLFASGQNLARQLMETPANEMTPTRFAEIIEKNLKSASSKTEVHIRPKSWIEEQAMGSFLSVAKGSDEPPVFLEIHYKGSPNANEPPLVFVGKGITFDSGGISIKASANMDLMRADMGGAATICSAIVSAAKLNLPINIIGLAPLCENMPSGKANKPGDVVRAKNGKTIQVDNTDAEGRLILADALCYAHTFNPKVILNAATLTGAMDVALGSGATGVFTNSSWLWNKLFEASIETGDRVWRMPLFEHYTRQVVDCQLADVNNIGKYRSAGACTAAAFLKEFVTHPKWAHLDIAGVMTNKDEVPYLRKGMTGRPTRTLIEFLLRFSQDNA
UniProt P49336: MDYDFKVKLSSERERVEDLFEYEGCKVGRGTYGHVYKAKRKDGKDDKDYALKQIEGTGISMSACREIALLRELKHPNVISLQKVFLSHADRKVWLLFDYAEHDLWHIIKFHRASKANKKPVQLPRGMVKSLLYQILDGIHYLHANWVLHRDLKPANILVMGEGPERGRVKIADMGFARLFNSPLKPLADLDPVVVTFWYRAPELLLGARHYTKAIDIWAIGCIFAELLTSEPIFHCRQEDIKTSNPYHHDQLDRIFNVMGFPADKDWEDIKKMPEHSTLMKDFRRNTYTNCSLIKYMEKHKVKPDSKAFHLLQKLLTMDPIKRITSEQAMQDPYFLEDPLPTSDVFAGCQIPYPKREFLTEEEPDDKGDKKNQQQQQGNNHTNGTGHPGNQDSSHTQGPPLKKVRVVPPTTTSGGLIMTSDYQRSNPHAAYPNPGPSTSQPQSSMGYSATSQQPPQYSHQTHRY
UniProt P28062: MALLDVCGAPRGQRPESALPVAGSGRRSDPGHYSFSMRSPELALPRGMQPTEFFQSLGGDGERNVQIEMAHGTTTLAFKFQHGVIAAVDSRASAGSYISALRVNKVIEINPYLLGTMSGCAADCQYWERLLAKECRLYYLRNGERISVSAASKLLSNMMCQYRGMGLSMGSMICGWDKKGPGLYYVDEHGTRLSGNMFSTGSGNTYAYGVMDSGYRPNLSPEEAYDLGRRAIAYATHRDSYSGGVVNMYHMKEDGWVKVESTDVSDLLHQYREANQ
UniProt P46736, whole entry: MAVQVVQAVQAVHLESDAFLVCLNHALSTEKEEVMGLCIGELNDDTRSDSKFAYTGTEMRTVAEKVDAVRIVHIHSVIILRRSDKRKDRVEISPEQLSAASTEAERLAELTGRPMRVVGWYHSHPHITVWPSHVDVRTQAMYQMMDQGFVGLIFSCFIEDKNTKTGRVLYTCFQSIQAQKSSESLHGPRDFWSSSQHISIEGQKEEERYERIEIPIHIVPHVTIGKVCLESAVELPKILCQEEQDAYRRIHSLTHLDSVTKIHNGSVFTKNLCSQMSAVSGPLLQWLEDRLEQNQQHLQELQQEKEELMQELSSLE
UniProt P46199: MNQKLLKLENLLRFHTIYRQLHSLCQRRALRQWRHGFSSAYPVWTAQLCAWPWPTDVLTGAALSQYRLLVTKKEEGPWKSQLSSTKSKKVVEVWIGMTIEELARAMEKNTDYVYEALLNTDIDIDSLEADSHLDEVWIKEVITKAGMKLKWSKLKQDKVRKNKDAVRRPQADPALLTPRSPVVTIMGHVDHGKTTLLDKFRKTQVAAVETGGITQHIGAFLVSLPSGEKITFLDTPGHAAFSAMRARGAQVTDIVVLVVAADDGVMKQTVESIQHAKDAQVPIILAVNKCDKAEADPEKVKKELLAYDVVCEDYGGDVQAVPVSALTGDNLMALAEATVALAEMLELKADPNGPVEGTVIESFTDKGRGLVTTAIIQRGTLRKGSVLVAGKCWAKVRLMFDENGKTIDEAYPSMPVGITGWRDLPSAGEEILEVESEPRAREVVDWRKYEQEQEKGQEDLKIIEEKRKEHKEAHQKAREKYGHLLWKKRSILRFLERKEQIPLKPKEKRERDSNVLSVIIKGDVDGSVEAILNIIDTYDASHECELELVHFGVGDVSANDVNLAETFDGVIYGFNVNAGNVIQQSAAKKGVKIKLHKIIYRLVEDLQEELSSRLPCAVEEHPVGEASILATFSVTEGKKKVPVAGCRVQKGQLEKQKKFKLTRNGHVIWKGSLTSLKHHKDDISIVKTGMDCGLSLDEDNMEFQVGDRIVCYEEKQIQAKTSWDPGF
UniProt P40939: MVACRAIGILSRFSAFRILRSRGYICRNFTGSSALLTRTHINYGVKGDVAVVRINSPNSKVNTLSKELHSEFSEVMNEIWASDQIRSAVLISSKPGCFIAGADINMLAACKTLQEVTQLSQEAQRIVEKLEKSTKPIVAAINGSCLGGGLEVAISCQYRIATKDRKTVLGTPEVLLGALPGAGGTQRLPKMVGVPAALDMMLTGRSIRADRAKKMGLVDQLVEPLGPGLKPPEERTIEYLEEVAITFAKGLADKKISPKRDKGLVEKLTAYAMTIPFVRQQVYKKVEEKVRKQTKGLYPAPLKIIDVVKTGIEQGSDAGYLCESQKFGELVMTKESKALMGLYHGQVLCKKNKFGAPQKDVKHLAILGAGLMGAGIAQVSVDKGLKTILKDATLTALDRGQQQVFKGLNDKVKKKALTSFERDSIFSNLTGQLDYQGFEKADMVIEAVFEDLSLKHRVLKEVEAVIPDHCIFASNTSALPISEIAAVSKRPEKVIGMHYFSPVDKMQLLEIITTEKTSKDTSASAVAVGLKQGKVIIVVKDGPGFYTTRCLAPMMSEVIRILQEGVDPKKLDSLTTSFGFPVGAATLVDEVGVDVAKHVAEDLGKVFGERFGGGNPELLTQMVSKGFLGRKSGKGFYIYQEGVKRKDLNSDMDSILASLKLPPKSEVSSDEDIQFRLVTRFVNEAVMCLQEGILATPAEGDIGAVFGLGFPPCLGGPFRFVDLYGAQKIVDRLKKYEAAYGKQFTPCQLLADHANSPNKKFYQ
UniProt P31323, whole entry: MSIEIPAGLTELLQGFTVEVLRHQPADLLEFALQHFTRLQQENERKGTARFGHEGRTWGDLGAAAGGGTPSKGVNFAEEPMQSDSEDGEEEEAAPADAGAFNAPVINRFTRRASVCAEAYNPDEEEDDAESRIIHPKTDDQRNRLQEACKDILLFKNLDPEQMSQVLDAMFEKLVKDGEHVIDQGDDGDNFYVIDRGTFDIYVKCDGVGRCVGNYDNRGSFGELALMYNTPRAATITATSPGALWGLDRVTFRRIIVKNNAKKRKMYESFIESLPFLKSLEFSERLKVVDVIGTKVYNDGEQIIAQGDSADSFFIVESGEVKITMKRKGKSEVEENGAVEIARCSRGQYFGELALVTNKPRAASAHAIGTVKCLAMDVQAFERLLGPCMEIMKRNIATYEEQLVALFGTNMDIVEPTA
UniProt P41091, whole entry: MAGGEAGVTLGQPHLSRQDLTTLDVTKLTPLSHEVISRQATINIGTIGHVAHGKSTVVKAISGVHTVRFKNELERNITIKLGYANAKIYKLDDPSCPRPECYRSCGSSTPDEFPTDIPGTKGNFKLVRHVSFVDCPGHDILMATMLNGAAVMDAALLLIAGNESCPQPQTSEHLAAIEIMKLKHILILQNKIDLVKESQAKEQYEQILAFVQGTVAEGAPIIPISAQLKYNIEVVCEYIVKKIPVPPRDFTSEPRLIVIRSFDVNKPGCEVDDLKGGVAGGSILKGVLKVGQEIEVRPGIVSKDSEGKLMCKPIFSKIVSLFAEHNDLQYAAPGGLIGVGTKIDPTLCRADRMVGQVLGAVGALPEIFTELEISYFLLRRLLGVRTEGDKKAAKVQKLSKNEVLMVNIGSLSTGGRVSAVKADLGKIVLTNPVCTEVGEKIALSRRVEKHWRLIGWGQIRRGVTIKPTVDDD
UniProt P31749: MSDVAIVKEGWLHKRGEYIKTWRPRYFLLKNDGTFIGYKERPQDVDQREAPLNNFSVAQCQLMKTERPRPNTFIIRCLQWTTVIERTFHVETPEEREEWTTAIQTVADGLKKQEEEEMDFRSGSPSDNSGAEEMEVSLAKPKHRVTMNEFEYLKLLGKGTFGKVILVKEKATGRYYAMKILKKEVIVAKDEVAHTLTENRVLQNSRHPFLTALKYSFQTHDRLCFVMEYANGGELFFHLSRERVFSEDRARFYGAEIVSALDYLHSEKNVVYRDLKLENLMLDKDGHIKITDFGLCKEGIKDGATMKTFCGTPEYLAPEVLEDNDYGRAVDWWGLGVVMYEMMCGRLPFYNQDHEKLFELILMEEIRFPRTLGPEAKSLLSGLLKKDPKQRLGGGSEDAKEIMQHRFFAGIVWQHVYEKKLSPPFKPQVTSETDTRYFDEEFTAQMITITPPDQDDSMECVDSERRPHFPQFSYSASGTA

compound: Nc1nc2c(ncn2[C@@H]2O[C@H](COP(=O)(O)OP(=O)(O)OP(=O)(O)O)[C@@H](O)[C@H]2O)c(=O)[nH]1 [guanosine triphosphate]; assay: NP40-soluble protein abundance relative to vehicle (solubility fold change) (ratio); higher = more soluble protein in presence of GTP; settings: concentration: 2mM
Method in brief: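 Crude Jurkat lysate, prepared by Dounce homogenisation, was exposed to eight concentrations from 0.1 to 10 mM for 10 min at room temperature and then 3 min at 37 °C. Solubilisation used 0.8% NP40 with benzonase for 60 min at 4 °C, followed by ultracentrifugation and TMT labelling of the supernatant for LC-MS/MS. After vsn normalisation of intensities, each value is the fold change against the detergent-processed vehicle within each replicate, across three independent experiments.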

| Target | NP40-soluble protein abundance |
| --- | --- |
| P42166 and related entries (UniProt P42167+P42166) | 1.01 ± 0.067 |
| RPL21 (UniProt P46778) | 1.01 ± 0.14 |
| MAPKAPK2 (UniProt P49137) | 0.963 ± 0.062 |
| UniProt P42684 and related entries | 1.1 ± 0.029 |
| UniProt P48960 and related entries | 0.99 ± 0.14 |
| EPS15 (UniProt P42566) | 0.924 ± 0.091 |
| UniProt P29374 and related entries | 1.06 ± 0.093 |
| PRCP (UniProt P42785) | 0.971 ± 0.047 |
| UniProt P49366 and related entries | 0.913 ± 0.075 |
| MTHFS (UniProt P49914) | 0.861 ± 0.046 |
| UniProt P48426 and related entries | 0.965 ± 0.041 |
| CRKL (UniProt P46109) | 0.932 ± 0.073 |
| UniProt P28838 and related entries | 0.934 ± 0.04 |
| SLC7A1 (UniProt P30825) | 1.05 ± 0.11 |
| UniProt P49336 and related entries | 1.19 ± 0.18 |
| UniProt P34896 and related entries | 0.967 ± 0.024 |
| P28062 and related entries (UniProt X5D2R7+P28062) | 1.01 ± 0.16 |
| STIP1 (UniProt P31948) | 0.969 ± 0.051 |
| UniProt P29590 and related entries | 0.923 ± 0.11 |

| Target | NP40-soluble protein abundance |
| --- | --- |
| UniProt P47756-2 | 0.948 ± 0.061 |
| UniProt P45985 and related entries | 0.875 ± 0.083 |
| MTOR (UniProt P42345) | 1.03 ± 0.12 |
| UniProt P46459 and related entries | 1.03 ± 0.069 |
| UniProt P46736 and related entries | 0.989 ± 0.052 |
| MTIF2 (UniProt P46199) | 1.05 ± 0.022 |
| HIBADH (UniProt P31937) | 0.962 ± 0.089 |
| HADHA (UniProt P40939) | 0.975 ± 0.073 |
| UniProt P38398 and related entries | 0.998 ± 0.081 |
| RPS19 (UniProt P39019) | 1.1 ± 0.33 |
| HSPA4 (UniProt P34932) | 0.919 ± 0.059 |
| PRKAR2B (UniProt P31323) | 0.884 ± 0.03 |
| UniProt P46934-4 | 1.06 ± 0.071 |
| EIF2S3 (UniProt P41091) | 0.98 ± 0.071 |
| AKT1 (UniProt P31749) | 0.847 ± 0.041 |
| UniProt P33316 and related entries | 0.897 ± 0.059 |
| UniProt P49757 and related entries | 1.1 ± 0.08 |
| MYH9 (UniProt P35579) | 0.953 ± 0.076 |
| UniProt P48047 | 1.07 ± 0.2 |

same assay, conditions: concentration: 4mM

| Target | NP40-soluble protein abundance |
| --- | --- |
| P42166 and related entries (UniProt P42167+P42166) | 1.01 ± 0.053 |
| RPL21 (UniProt P46778) | 0.914 ± 0.2 |
| MAPKAPK2 (UniProt P49137) | 1.02 ± 0.036 |
| UniProt P42684 and related entries | 1.05 ± 0.078 |
| UniProt P48960 and related entries | 0.973 ± 0.11 |
| EPS15 (UniProt P42566) | 0.939 ± 0.083 |
| UniProt P29374 and related entries | 1.1 ± 0.1 |
| PRCP (UniProt P42785) | 0.925 ± 0.034 |
| UniProt P49366 and related entries | 0.918 ± 0.07 |
| MTHFS (UniProt P49914) | 0.824 ± 0.056 |
| UniProt P48426 and related entries | 0.968 ± 0.034 |
| CRKL (UniProt P46109) | 0.921 ± 0.076 |
| UniProt P28838 and related entries | 0.924 ± 0.043 |
| SLC7A1 (UniProt P30825) | 1.09 ± 0.17 |
| UniProt P49336 and related entries | 1.13 ± 0.095 |
| UniProt P34896 and related entries | 0.998 ± 0.01 |
| P28062 and related entries (UniProt X5D2R7+P28062) | 1.01 ± 0.18 |
| STIP1 (UniProt P31948) | 0.94 ± 0.011 |
| UniProt P29590 and related entries | 0.904 ± 0.088 |

| Target | NP40-soluble protein abundance |
| --- | --- |
| UniProt P47756-2 | 0.953 ± 0.059 |
| UniProt P45985 and related entries | 0.881 ± 0.093 |
| MTOR (UniProt P42345) | 1.04 ± 0.061 |
| UniProt P46459 and related entries | 1.02 ± 0.075 |
| UniProt P46736 and related entries | 0.972 ± 0.021 |
| MTIF2 (UniProt P46199) | 0.975 ± 0.067 |
| HIBADH (UniProt P31937) | 0.941 ± 0.032 |
| HADHA (UniProt P40939) | 0.977 ± 0.077 |
| UniProt P38398 and related entries | 0.931 ± 0.079 |
| RPS19 (UniProt P39019) | 0.955 ± 0.39 |
| HSPA4 (UniProt P34932) | 0.903 ± 0.056 |
| PRKAR2B (UniProt P31323) | 0.913 ± 0.013 |
| UniProt P46934-4 | 0.996 ± 0.032 |
| EIF2S3 (UniProt P41091) | 0.981 ± 0.04 |
| AKT1 (UniProt P31749) | 0.855 ± 0.044 |
| UniProt P33316 and related entries | 0.867 ± 0.055 |
| UniProt P49757 and related entries | 1.08 ± 0.031 |
| MYH9 (UniProt P35579) | 0.974 ± 0.076 |
| UniProt P48047 | 1.04 ± 0.17 |

same assay, conditions: concentration: 6mM

| Target | NP40-soluble protein abundance |
| --- | --- |
| P42166 and related entries (UniProt P42167+P42166) | 1.02 ± 0.057 |
| RPL21 (UniProt P46778) | 0.856 ± 0.19 |
| MAPKAPK2 (UniProt P49137) | 0.911 ± 0.1 |
| UniProt P42684 and related entries | 1.06 ± 0.14 |
| UniProt P48960 and related entries | 0.943 ± 0.093 |
| EPS15 (UniProt P42566) | 0.933 ± 0.07 |
| UniProt P29374 and related entries | 1.1 ± 0.079 |
| PRCP (UniProt P42785) | 0.953 ± 0.04 |
| UniProt P49366 and related entries | 0.92 ± 0.056 |
| MTHFS (UniProt P49914) | 0.836 ± 0.072 |
| UniProt P48426 and related entries | 1.06 ± 0.052 |
| CRKL (UniProt P46109) | 0.906 ± 0.089 |
| UniProt P28838 and related entries | 0.935 ± 0.056 |
| SLC7A1 (UniProt P30825) | 1.05 ± 0.2 |
| UniProt P49336 and related entries | 1.1 ± 0.097 |
| UniProt P34896 and related entries | 0.936 ± 0.029 |
| P28062 and related entries (UniProt X5D2R7+P28062) | 1.02 ± 0.21 |
| STIP1 (UniProt P31948) | 0.98 ± 0.032 |
| UniProt P29590 and related entries | 0.933 ± 0.087 |

| Target | NP40-soluble protein abundance |
| --- | --- |
| UniProt P47756-2 | 0.951 ± 0.058 |
| UniProt P45985 and related entries | 0.857 ± 0.11 |
| MTOR (UniProt P42345) | 0.986 ± 0.067 |
| UniProt P46459 and related entries | 1.02 ± 0.083 |
| UniProt P46736 and related entries | 0.957 ± 0.021 |
| MTIF2 (UniProt P46199) | 0.949 ± 0.052 |
| HIBADH (UniProt P31937) | 0.953 ± 0.063 |
| HADHA (UniProt P40939) | 0.977 ± 0.1 |
| UniProt P38398 and related entries | 1.02 ± 0.096 |
| RPS19 (UniProt P39019) | 0.892 ± 0.35 |
| HSPA4 (UniProt P34932) | 0.912 ± 0.05 |
| PRKAR2B (UniProt P31323) | 0.95 ± 0.079 |
| UniProt P46934-4 | 0.982 ± 0.077 |
| EIF2S3 (UniProt P41091) | 0.995 ± 0.038 |
| AKT1 (UniProt P31749) | 0.822 ± 0.019 |
| UniProt P33316 and related entries | 0.883 ± 0.047 |
| UniProt P49757 and related entries | 1.09 ± 0.036 |
| MYH9 (UniProt P35579) | 0.981 ± 0.07 |
| UniProt P48047 | 1.07 ± 0.22 |
